Experimental data taken from patent US20060172360A1.
Results are given in words; binding and its absence hold for the method and conditions named. For part of these data: Binding seen in cells or lysates may run through a third protein. Some results given as binding are weak or reduced against the parent protein; the word gives no strength.

Protein sequences, listed by entry. Tags and fused reporters are not part of them.
UniProt O14733: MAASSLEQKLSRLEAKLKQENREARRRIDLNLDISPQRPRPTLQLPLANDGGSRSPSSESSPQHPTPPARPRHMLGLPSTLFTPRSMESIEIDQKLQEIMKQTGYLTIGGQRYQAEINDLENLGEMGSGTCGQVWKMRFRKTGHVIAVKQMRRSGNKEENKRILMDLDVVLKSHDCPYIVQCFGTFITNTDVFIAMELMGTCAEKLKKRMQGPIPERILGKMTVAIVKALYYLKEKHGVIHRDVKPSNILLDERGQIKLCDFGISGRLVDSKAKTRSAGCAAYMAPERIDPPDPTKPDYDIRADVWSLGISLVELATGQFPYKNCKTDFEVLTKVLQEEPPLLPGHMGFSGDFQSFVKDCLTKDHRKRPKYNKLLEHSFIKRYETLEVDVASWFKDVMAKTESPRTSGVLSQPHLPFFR
UniProt O96013: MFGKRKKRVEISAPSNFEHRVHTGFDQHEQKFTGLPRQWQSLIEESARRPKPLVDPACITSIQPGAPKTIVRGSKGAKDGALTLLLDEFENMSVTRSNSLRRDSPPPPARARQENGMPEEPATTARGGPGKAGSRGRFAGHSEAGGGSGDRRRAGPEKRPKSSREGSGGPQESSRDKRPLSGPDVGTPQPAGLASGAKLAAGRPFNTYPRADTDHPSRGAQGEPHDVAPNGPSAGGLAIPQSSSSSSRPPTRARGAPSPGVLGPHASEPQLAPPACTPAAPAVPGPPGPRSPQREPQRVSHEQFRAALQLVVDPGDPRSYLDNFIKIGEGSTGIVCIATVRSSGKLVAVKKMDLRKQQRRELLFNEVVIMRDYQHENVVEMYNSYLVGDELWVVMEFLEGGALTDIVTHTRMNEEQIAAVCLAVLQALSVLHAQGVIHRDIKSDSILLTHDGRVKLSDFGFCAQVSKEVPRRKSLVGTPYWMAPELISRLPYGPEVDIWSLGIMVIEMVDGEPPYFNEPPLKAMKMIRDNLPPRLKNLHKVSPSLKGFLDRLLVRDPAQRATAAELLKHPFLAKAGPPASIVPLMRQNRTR

What was measured:
[1] = target: HA-MKK7 (human MAP kinase kinase 7 ligated with HA-tag at its N-terminus) (human) (UniProt O14733); test: co-expression in HEK293T cells, immunoprecipitation with anti-FLAG M2 affinity gel, western blot with anti-HA
[2] = target: HA-MKK7 (human MAP kinase kinase 7 ligated with HA-tag at its N-terminus) (human) (UniProt O14733); test: summary of co-immunoprecipitation and kinase assays
[3] = target: HA-MKK7 (human MAP kinase kinase 7 ligated with HA-tag at its N-terminus) (human) (UniProt O14733); test: co-immunoprecipitation and western blot (FIG. 3)

Measured: binding

FLAG-PAK4 (human p21-activated kinase 4 ligated with FLAG-tag at its N-terminus) (from UniProt O96013 1-591) (enzyme)
binds: all assays above
